# Measured values from PubChem BioAssay AID1117319 (Southern Research Institute, 2015).
# The chains behind the UniProt entries cited, without tags or fusion partners. Where a name states a change or a piece, a line headed by the entry shows the natural chain unless it says otherwise.
# UniProt P69720: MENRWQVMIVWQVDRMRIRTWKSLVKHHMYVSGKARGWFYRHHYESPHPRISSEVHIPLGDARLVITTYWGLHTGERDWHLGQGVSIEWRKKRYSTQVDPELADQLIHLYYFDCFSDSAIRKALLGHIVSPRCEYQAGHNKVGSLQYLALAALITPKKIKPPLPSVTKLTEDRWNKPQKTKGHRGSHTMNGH
# UniProt P69721: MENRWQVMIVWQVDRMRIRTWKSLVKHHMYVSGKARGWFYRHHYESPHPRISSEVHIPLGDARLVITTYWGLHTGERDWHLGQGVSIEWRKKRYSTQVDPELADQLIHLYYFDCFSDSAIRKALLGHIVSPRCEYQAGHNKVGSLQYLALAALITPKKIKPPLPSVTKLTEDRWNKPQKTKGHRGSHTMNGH
# UniProt P69722: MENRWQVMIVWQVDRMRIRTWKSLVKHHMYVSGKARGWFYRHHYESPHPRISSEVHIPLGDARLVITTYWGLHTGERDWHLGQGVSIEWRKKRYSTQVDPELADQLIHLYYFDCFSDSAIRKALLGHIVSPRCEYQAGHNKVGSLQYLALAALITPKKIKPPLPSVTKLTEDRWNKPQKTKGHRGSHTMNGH
# UniProt P69723: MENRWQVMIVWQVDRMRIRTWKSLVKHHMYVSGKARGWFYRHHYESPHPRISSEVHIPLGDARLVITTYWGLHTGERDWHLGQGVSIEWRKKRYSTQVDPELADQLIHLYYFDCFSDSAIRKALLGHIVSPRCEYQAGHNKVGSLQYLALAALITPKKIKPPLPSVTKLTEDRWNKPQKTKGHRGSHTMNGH
# UniProt Q9HC16: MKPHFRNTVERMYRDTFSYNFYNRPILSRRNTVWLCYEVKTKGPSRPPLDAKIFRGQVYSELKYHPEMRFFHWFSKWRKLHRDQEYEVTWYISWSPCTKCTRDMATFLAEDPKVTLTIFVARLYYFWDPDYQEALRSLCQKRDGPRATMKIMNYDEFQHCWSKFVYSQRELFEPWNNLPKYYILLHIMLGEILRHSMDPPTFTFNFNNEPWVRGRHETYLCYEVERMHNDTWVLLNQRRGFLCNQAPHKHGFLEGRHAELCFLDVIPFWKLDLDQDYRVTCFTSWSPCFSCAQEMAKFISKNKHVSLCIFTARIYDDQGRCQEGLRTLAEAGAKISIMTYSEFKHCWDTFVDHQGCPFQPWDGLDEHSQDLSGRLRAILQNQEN
# The whole screen tested about 260,000 compounds, of which about 1,500 (0.58%) were called active. Inconclusive results, whose numbers are uncertain, are shown with a selection of clear calls.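 Rule for the calls: active = inhibition above a set limit at one or more doses, reproduced on every date tested; inconclusive = results disagree between test dates, or hit never tested in dose response; inactive = the rest.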
# Biological target: Virion infectivity factor (Human immunodeficiency virus type 1 group M subtype B (isolate BH10)) + Virion infectivity factor (Human immunodeficiency virus type 1 group M subtype B (isolate BRU/LAI)) + Virion infectivity factor (Human immunodeficiency virus type 1 group M subtype B (isolate PCV12)) + Virion infectivity factor (Human immunodeficiency virus type 1 group M subtype B (isolate HXB2)) + DNA dC->dU-editing enzyme APOBEC-3G (Homo sapiens) (UniProt P69720+P69721+P69722+P69723+Q9HC16)
# Assay: inhibitors of Vif binding to APOBEC3G peptide, primary screen, biochemical, TR-FRET, GST-Vif 1-94, biotin-A3G peptide, dose response retest (AID 1117319);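 note: Vif residues 1-94 fused to GST binding biotinylated APOBEC3G peptide 110-148; 0% = full assay without inhibitor and 100% = GST in place of GST-Vif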
# Settings: stronger effect = higher value
row,SMILES,inhibition
1,CCCCOc1ccccc1NC(=O)CC1SC(=NCC)N(CC)C1=O (centres undefined),inconclusive: 45.1%
2,COc1cc(NC(=O)CSc2nnnn2Cc2ccc3c(c2)OCO3)cc(OC)c1,inconclusive: 34.3%
3,CC(=Nc1ccc(C)c(C)c1)C1=C(O)CSC1=O,inconclusive: 39.6%
4,COC(=O)c1ccc(C2C(Oc3ccccc3)C(=O)N2CCc2ccc(F)cc2)cc1 (centres undefined),inactive: -5.73%
5,O=C(Cc1cccs1)NCc1ccncc1,inconclusive: 51.6%
6,CCOc1ccc2nc(NC(=O)c3cnccn3)sc2c1,inconclusive: 48.3%
7,COc1ccccc1N1CCN(Cc2c[nH]c3ccccc23)CC1,inconclusive: 43.9%
8,Cc1nc2sc3c(c2c(=O)[nH]1)CCCCC3,inconclusive: 43.7%
9,CCCC(=O)NCc1ccc2c(c1)cc(C)n2C,inconclusive: 33.3%
10,CN(C)c1ccc(CC2C(=O)Nc3ccccc32)cc1 (centres undefined),inconclusive: 38.1%
11,COC(=O)C1=C(C)N(Cc2ccco2)C(=O)/C1=C\c1ccc([N+](=O)[O-])cc1,inactive: -12.1%
12,COc1ccc(C2NCCc3c2[nH]c2ccccc32)cc1CN1CCc2cc(OC)c(OC)cc2C1C (centres undefined),inconclusive: 61.1%
13,CCN1CCCC1CNC(=O)C(=O)NCc1ccccc1 (centres undefined),inconclusive: 49.7%
14,COc1ccc(N2CCC(CNC(=S)Nc3cc(C)cc(C)c3)C2)cc1 (centres undefined),inconclusive: 33.9%
15,COc1ccc(-c2noc(-c3cccc(OC)c3OC)n2)cc1OC,inconclusive: 37.9%
16,CCCSC1=N/C(=C\c2ccsc2)C(=O)S1,inactive: 0.21%
17,CCC1CCCCN1C(=O)Cn1c(=O)n(CCC(=O)NCc2ccco2)c(=O)c2sccc21 (centres undefined),inconclusive: 42.4%
18,COC(=O)c1c(CCl)noc1C(=O)NC(C)C,inconclusive: 50.5%
19,O=C(O)Cn1cc(/C=C2\SC(=O)N(c3ccccc3)C2=O)c2ccccc21,inactive: -7.51%
20,CO/N=C/c1ccc(N2CCN(C(=O)c3ccc(Cl)cc3Cl)CC2)c([N+](=O)[O-])c1,inconclusive: 44.6%

row,SMILES,inhibition
1,CCc1nc2c(c(=O)c3ccccc3n2C)c(=O)n1CCc1ccc(OC)cc1,inconclusive: 49.8%
2,O=C(Cn1nc(C(F)(F)F)c2c1CCCCC2)N1CCOCC1,inconclusive: 36.5%
3,COc1ccc(C(C)n2c(C)c3c(C)nnc(C)c3c2C)cc1 (centres undefined),inconclusive: 33%
4,Cc1oc2cc(O)cc(C)c2c(=O)c1-c1cnn(-c2ccccc2)c1,inconclusive: 55.2%
5,Nc1c(C(=O)Nc2ccccc2F)sc2nc(-c3ccco3)ccc12,inconclusive: 34.1%
6,S=c1[nH]nc(-c2cc(-c3ccccc3)n[nH]2)n1/N=C/C=C/c1ccco1,inconclusive: 56.2%
7,NNC(=O)CN1C(c2ccccc2Br)=Nc2ccc(Br)cc2C1c1ccccc1 (centres undefined),inconclusive: 38.1%
8,O=C(COC(=O)c1ccc[nH]c1=O)NC1CCCCCCC1,inconclusive: 38%
9,COc1ccc(S(=O)(=O)Nc2cccc(SC)c2)cc1OC,inconclusive: 41.9%
10,CC(C)(C)NC(=O)COC(=O)Cc1ccc(Cl)cc1,inconclusive: 33.4%
11,Cc1cc(C)n2ncc(C(=O)NCCc3ccccc3)c2n1,inconclusive: 37.5%
12,CC(=O)c1ccc(NC(=O)c2cnn3ccccc23)cc1,inactive: 1.77%
13,CCOc1ccccc1NC(=O)Nc1ccc(Br)cn1,inconclusive: 46.8%
14,CC(NC(=O)c1ccc(Br)s1)c1ccncc1 (centres undefined),inconclusive: 33.3%
15,O=C(NC(=S)Nc1cccc2c(O)cccc12)c1cccc(Br)c1,inconclusive: 41.1%
16,Cc1cccc2cc(C(c3nnnn3Cc3ccc4c(c3)OCO4)N3CCCC3)c(=O)[nH]c12 (centres undefined),inconclusive: 30.6%
17,COC(=O)C1CCCCN1C(=O)c1cc(COc2cccc3cccnc23)on1 (centres undefined),inactive: 4.07%
18,COc1ccc(CCCc2n[nH]c(=S)o2)cc1,inconclusive: 46.6%
19,CC(Oc1ccc(-c2ccccc2)cc1)C(=O)N1CCOCC1 (centres undefined),inconclusive: 29.4%
20,O=C(Nc1nc2cc3c(cc2s1)OCO3)C1CC1,inconclusive: 37%

# Quoted at random: 2 compounds from above.
row,SMILES,inhibition
18,COC(=O)c1c(CCl)noc1C(=O)NC(C)C,inconclusive: 50.5%
2,COc1cc(NC(=O)CSc2nnnn2Cc2ccc3c(c2)OCO3)cc(OC)c1,inconclusive: 34.3%

# Next part:

row,SMILES,inhibition
1,COc1ccc(Cl)cc1CSc1ncn[nH]1,inconclusive: 56.8%
2,Cc1ccsc1CNn1cnnc1SCc1ccccc1F,inconclusive: 43%
3,COCCNC(=O)COC(=O)c1nsc(Cl)c1Cl,inconclusive: 16.3%
4,COc1ccc(-c2nc3ccccc3n2OCC(=O)O)cc1,inactive: 15.9%
5,C/C=C(\C)C(=O)N1CC2(CC(c3cccc(NC(=O)COc4ccc(Cl)cc4)c3)=NO2)C[C@@H]1C(N)=O (some centres undefined),inconclusive: 43.1%
6,Cc1c(C(=O)Nc2ccc(OCc3ccccc3)cc2)cccc1[N+](=O)[O-],inconclusive: 36.9%
7,COCCCNC(=O)CSC1=Nc2ccccc2C2=NC(Cc3c[nH]c4ccccc34)C(=O)N12 (centres undefined),inconclusive: 49%
8,Cn1c(-c2ccccc2)cccc1=O,inconclusive: 11%
9,COc1ccc(NC(=S)N2CCN(C(=O)C3CCCO3)CC2)c(OC)c1 (centres undefined),inconclusive: 33.2%
10,COc1cccc(CN(C(=O)Cc2c[nH]c3ccccc23)C(C(=O)NC2CCCCC2)c2cccs2)c1 (centres undefined),inconclusive: 43.6%
11,N#Cc1ccc(-c2ccco2)nc1SCC(=O)c1ccc(Cl)cc1,inconclusive: 74.7%
12,CCOC(=O)Nc1ccc2nc(N3CCCCCC3)sc2c1,inconclusive: 40.9%
13,C=CCOC(=O)C1=C(C)NC(C)=C(C(=O)OCC=C)C1c1ccco1,inconclusive: 44.3%
14,CC1(C)CC(=O)c2cc(C(=O)NCc3ccco3)c(=O)n(-c3ccc(Cl)cc3)c2C1,inconclusive: 33.2%
15,NC(=O)NN=C1C2CCCC1C(c1ccccc1)NC2c1ccccc1 (centres undefined),inconclusive: 33.7%
16,O=S(=O)(/N=C(\c1ccccc1)N1CCOCC1)c1ccc(Cl)cc1,inconclusive: 43.4%
17,Cc1ccc(C(NC(=O)C(C)C)c2cc([N+](=O)[O-])c3cccnc3c2O)cc1 (centres undefined),inconclusive: 34.1%
18,CSc1sc(C(=O)N2CCCCC2)c(-c2cccs2)c1C#N,inconclusive: 44.9%
19,Cn1c(SCC(=O)Nc2cccc(S(=O)(=O)N3CCOCC3)c2)nnc1-c1ccncc1,inconclusive: 58.3%

# In another format: results already given
row	SMILES	inhibition
12	CCOC(=O)Nc1ccc2nc(N3CCCCCC3)sc2c1	inconclusive: 40.9%
13	C=CCOC(=O)C1=C(C)NC(C)=C(C(=O)OCC=C)C1c1ccco1	inconclusive: 44.3%
